No constants are given. Whether binding was seen depends on the method and setting. For part of these data: In cells and extracts the contact can be indirect. Some results given as binding are weak or reduced against the parent protein; the word gives no strength. For part of these data: Tags and fused reporters may be left off the sequences shown.
T1: Pob1 (two-hybrid bait, pob1+ ORF in pAS2) (S. pombe) (UniProt O74653)
T1 sequence: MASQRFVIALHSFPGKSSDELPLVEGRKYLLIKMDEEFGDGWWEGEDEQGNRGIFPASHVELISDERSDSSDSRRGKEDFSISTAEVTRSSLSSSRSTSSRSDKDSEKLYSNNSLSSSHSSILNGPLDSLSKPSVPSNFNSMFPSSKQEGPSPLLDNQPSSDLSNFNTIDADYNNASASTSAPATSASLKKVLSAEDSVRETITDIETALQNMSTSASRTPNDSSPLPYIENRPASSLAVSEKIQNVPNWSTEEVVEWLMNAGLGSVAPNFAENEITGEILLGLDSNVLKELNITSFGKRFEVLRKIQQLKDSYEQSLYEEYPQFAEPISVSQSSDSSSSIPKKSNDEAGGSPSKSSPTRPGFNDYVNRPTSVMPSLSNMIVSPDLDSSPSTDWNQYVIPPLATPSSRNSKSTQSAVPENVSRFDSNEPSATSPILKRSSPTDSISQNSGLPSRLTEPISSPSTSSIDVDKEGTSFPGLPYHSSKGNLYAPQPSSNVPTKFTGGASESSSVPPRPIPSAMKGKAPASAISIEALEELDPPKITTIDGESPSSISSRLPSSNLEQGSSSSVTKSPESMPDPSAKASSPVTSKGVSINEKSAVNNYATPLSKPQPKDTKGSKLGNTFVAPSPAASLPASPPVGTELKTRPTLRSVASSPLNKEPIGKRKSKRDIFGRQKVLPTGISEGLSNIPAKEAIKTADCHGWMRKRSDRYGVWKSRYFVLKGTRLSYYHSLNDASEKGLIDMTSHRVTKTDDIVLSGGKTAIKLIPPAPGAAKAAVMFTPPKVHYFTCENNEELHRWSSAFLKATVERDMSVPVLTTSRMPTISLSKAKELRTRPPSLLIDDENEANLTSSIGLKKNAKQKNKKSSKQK

T2: Scd2 (two-hybrid bait, scd2+ ORF in pAS2) (S. pombe) (UniProt P40996)
T2 sequence: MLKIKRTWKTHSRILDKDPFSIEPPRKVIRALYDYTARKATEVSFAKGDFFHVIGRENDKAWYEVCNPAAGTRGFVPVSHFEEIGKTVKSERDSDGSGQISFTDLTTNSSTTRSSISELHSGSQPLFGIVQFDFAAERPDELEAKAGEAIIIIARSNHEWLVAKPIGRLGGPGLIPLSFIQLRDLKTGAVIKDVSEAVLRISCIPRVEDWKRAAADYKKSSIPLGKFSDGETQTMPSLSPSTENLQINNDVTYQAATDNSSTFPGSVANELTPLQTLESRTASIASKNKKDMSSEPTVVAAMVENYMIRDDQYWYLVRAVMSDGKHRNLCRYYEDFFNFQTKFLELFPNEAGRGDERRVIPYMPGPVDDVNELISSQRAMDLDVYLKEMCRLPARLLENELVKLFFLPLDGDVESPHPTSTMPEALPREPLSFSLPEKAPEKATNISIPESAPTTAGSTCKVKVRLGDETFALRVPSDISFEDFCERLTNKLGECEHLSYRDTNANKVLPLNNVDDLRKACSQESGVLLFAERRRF

T3: Scd2-GFP (S. pombe) (UniProt P40996)
T3 sequence: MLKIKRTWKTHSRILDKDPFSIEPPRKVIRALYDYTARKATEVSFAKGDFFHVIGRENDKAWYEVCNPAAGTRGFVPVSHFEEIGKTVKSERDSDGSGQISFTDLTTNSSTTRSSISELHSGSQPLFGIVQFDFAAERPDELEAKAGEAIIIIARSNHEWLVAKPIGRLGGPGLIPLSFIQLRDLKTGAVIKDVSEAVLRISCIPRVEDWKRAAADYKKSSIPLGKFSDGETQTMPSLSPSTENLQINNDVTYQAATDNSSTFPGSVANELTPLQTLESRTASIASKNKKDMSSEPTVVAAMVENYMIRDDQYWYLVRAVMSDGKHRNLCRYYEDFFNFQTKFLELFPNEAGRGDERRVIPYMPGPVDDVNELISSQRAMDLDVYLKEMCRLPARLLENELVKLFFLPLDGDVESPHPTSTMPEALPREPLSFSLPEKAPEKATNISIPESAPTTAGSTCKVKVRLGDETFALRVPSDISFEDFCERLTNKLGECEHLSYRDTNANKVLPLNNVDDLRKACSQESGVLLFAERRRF


What was measured:
[1] = molecular target: T1, Pob1 (two-hybrid bait, pob1+ ORF in pAS2) (S. pombe); assay: two-hybrid; baits in pAS2, Eng2 prey in pACT2, S. cerevisiae AH109; interaction assessed by growth on YNB plates without histidine and adenine
[2] = molecular target: T2, Scd2 (two-hybrid bait, scd2+ ORF in pAS2) (S. pombe); assay: as above
[3] = molecular target: T3, Scd2-GFP (S. pombe); assay: co-IP; S. pombe cells crosslinked with 1% formaldehyde for 10 min at 30 °C; extracts in 25 mM Tris HCl pH 7.5, 150 mM NaCl, 0.5% SDS, 1% NP40; GFP-Trap beads 1 h at 4 °C; blots with anti-GFP and anti-HA

binding [1]	binding [2]	binding [3]	Binder
no binding	binds	–	Eng2 (two-hybrid prey, eng2+ ORF in pACT2) (protein, UniProt Q09850 1-706) MDVLVPIYTGPINPVFPSRAHPSPPLGLTSNLFPIQTNKFYGNLYIGTRHNPSWSHPYSVTWLNGSSYYGLAISHIDDSQRVFGPDPESVPCQYYFNPAGLYSIIISAREFASGNLLSLDQSRHFSIQATLSATTSGSGTIILPIVAGMGFVSGYYTNLTPVFNSSILFSSITKINFSRGYKYRIQLTDGKIWFLYAFPTSSSSTFNLTLASNSQLTTSTKFTGLIQICKVPNESVNNSYPDTIYDASAGVYTTSISLSAQVSGTTGEYWFRFATAGYTNLNPLMFALPHHMQSFGSDTQAYKTGLGLASTTMGIMFAYATKTWHLIEKNLPTQVGFLPIPWNGGSNTYSPTALAAIRAACATDINFDVVNASNLDSMYTSGKIVAMYAQVCLVASRILGDSTLTNTGLTKLKQAMARFTTNTQMYPLVYDTTYKGIISTAGYSSPLADYGNTYYNDHHFHWGYHIYACAVIGLLDPSWLVNDNIRYVNALLRDSANPSESDTYFAMFRNFDWFVGHSWATGIFESGDGKDEESTSEDFNFLYATKLWGMVRNDTVLINRANLMLAVLKNSLNTYIYMTPTTSVQPSQILGNYVTGITFMNKVDYATYFSAEEYCKQGIHMIPTTPISGYLRSPSYVQQDWNAKIAPIINTFSNNWTGILWSNYAIYDPKTAYNTFAASTFTADKIDNGASKTWYLAMAAGMGGSP
–	–	binds	Eng2-HA (protein, UniProt Q09850 1-706) MDVLVPIYTGPINPVFPSRAHPSPPLGLTSNLFPIQTNKFYGNLYIGTRHNPSWSHPYSVTWLNGSSYYGLAISHIDDSQRVFGPDPESVPCQYYFNPAGLYSIIISAREFASGNLLSLDQSRHFSIQATLSATTSGSGTIILPIVAGMGFVSGYYTNLTPVFNSSILFSSITKINFSRGYKYRIQLTDGKIWFLYAFPTSSSSTFNLTLASNSQLTTSTKFTGLIQICKVPNESVNNSYPDTIYDASAGVYTTSISLSAQVSGTTGEYWFRFATAGYTNLNPLMFALPHHMQSFGSDTQAYKTGLGLASTTMGIMFAYATKTWHLIEKNLPTQVGFLPIPWNGGSNTYSPTALAAIRAACATDINFDVVNASNLDSMYTSGKIVAMYAQVCLVASRILGDSTLTNTGLTKLKQAMARFTTNTQMYPLVYDTTYKGIISTAGYSSPLADYGNTYYNDHHFHWGYHIYACAVIGLLDPSWLVNDNIRYVNALLRDSANPSESDTYFAMFRNFDWFVGHSWATGIFESGDGKDEESTSEDFNFLYATKLWGMVRNDTVLINRANLMLAVLKNSLNTYIYMTPTTSVQPSQILGNYVTGITFMNKVDYATYFSAEEYCKQGIHMIPTTPISGYLRSPSYVQQDWNAKIAPIINTFSNNWTGILWSNYAIYDPKTAYNTFAASTFTADKIDNGASKTWYLAMAAGMGGSP
